From the supplement of paper PMC10849652
The other results are listed elsewhere or left out.

The chains behind the UniProt entries cited, without tags or fusion partners. Where a name states a change or a piece, a line headed by the entry shows the natural chain unless it says otherwise.
UniProt Q9NVH0: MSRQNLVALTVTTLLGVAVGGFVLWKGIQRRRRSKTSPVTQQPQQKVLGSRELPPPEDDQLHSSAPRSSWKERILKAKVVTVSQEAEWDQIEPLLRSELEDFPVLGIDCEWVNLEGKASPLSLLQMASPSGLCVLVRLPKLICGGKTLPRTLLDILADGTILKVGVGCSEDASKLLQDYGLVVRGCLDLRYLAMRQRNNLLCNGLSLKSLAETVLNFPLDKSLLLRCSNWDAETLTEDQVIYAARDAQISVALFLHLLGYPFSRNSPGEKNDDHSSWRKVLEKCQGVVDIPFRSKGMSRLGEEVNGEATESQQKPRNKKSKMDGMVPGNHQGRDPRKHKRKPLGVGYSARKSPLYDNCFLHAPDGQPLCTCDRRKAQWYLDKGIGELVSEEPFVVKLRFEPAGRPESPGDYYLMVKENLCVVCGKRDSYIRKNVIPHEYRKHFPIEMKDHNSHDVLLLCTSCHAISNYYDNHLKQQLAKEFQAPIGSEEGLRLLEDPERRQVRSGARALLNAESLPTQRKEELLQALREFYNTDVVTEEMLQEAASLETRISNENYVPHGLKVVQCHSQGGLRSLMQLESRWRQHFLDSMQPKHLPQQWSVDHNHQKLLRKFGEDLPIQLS
UniProt Q6P1L5: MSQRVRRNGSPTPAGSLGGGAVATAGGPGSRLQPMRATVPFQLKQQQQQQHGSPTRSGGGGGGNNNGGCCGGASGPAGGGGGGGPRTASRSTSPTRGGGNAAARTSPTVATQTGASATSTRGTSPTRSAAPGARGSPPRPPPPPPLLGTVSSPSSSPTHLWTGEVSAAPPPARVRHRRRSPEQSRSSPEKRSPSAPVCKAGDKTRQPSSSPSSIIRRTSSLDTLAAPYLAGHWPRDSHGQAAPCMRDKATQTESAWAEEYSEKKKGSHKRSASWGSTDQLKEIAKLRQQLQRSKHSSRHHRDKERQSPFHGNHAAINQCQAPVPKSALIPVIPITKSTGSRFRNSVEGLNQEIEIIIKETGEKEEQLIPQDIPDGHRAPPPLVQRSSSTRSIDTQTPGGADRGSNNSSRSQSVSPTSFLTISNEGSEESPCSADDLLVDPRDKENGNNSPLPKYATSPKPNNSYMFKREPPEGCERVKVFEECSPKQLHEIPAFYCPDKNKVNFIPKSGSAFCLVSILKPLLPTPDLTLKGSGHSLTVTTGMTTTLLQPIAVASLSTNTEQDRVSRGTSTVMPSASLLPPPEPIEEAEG
UniProt Q96A65: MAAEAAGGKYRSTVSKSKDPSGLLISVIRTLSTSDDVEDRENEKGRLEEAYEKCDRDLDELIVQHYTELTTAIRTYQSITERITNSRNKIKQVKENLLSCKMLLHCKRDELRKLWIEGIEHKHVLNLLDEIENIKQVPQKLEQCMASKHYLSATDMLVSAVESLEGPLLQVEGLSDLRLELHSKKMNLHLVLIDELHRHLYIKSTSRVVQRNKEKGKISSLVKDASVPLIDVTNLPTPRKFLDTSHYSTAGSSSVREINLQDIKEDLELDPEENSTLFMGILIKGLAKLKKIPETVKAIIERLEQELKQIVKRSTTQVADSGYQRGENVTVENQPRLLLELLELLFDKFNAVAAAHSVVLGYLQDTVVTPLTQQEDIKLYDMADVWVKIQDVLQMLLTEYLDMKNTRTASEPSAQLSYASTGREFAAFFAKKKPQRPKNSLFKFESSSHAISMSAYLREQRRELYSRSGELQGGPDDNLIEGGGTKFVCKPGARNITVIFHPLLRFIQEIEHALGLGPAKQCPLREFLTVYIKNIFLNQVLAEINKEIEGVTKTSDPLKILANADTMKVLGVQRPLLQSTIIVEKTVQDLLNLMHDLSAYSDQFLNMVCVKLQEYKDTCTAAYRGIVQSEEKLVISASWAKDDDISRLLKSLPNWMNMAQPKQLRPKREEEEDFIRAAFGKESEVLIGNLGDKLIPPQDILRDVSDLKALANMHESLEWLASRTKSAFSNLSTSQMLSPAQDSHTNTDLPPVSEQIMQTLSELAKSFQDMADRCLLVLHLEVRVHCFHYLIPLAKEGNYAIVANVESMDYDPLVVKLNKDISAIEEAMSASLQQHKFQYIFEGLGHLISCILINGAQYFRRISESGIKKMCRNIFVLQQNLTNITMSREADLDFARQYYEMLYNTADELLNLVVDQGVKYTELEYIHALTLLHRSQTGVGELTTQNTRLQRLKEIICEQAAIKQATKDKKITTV
UniProt O60645: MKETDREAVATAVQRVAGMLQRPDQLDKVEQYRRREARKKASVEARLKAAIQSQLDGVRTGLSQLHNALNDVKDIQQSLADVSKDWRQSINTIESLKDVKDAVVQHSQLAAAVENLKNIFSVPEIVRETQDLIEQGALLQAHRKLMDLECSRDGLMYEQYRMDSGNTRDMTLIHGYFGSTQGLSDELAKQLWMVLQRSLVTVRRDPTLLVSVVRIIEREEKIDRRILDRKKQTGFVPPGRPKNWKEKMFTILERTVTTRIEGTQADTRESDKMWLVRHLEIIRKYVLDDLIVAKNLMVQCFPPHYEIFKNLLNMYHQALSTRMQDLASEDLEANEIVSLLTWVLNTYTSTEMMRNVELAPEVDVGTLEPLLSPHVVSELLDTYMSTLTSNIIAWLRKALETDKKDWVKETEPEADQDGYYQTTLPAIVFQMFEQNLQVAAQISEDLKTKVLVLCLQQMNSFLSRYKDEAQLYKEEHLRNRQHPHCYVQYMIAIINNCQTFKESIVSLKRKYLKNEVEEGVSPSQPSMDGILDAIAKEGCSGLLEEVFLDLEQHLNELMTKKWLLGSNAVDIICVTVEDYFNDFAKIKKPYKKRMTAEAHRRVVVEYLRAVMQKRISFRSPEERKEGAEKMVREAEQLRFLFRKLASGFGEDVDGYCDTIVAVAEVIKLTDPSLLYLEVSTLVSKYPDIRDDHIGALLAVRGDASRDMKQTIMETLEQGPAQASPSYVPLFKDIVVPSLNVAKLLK
UniProt Q9Y421: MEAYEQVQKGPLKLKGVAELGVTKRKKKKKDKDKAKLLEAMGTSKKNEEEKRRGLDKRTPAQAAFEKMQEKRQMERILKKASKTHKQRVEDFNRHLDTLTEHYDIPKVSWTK
UniProt Q9BSJ8: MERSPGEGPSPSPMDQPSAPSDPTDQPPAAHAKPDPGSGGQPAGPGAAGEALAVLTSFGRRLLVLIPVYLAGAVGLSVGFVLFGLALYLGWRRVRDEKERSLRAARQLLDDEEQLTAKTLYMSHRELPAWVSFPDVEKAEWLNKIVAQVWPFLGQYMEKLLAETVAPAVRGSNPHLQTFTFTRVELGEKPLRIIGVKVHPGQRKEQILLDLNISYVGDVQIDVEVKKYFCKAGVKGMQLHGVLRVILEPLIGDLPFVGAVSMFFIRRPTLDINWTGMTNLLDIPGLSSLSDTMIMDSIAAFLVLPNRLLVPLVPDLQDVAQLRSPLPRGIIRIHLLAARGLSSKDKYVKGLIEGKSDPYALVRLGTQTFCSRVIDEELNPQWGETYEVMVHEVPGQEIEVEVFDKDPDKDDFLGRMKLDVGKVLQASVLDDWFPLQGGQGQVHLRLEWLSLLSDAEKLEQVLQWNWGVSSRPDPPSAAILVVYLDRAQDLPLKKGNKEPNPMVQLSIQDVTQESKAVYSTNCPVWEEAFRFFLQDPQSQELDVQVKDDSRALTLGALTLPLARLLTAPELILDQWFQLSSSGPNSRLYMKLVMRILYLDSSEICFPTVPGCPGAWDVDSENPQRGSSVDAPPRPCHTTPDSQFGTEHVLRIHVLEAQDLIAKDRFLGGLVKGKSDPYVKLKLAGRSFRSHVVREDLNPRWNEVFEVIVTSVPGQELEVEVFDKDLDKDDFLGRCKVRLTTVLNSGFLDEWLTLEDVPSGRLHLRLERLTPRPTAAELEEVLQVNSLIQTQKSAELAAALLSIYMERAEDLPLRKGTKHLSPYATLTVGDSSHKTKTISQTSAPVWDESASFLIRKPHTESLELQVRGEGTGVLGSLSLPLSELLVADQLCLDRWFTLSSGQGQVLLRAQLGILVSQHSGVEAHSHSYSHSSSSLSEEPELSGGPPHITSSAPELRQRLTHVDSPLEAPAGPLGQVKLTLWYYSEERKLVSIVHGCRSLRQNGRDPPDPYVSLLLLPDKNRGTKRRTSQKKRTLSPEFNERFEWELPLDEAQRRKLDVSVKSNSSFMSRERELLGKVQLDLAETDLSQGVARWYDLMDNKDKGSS
UniProt Q9NWS6: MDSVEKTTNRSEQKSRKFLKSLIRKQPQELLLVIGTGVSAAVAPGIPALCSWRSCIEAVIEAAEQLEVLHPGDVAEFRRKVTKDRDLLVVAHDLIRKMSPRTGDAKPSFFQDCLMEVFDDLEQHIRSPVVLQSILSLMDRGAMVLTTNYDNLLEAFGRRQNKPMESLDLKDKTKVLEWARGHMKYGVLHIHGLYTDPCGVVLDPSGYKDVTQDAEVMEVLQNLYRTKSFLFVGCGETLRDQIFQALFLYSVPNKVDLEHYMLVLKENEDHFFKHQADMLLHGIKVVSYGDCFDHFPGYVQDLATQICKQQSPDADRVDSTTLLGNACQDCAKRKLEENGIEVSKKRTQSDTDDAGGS
UniProt Q13158: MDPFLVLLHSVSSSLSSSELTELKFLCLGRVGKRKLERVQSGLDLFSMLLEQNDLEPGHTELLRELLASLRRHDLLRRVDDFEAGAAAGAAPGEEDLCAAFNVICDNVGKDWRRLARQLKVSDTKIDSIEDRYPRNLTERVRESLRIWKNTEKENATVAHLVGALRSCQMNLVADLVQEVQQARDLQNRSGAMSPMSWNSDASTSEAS
UniProt P38117: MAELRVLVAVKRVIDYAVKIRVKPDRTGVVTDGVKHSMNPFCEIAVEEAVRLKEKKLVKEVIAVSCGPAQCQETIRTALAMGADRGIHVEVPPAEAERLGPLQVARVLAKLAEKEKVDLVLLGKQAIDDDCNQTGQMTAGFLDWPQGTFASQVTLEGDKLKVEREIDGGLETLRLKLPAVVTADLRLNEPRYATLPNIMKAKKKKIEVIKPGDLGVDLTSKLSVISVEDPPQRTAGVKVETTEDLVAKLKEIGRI
UniProt O00471: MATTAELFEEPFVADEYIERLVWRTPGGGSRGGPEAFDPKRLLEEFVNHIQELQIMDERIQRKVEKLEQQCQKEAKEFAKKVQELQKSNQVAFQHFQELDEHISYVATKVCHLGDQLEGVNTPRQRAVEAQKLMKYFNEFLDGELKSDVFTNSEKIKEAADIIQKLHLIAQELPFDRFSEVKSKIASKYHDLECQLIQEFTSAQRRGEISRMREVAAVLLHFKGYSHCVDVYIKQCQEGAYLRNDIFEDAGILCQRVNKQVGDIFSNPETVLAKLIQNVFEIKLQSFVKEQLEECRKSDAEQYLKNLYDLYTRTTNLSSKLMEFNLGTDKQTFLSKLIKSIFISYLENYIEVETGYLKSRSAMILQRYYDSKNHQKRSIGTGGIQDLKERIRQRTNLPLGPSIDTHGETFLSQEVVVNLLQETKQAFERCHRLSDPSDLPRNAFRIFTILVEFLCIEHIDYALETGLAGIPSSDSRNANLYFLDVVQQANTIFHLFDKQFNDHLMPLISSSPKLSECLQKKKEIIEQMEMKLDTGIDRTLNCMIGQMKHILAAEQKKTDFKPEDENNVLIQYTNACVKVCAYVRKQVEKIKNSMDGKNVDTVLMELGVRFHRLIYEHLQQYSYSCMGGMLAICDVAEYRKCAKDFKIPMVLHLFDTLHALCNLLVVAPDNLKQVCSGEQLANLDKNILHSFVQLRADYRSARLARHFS
UniProt O75477: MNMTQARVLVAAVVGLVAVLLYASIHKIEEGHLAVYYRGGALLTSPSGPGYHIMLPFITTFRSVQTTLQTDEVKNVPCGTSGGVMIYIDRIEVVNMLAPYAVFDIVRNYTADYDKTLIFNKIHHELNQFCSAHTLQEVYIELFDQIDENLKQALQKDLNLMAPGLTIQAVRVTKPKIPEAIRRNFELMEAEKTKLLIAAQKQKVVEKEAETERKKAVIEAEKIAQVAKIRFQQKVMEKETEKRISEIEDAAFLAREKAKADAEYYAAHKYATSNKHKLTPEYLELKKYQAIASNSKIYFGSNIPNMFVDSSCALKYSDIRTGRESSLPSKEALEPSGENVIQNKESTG
UniProt P98173: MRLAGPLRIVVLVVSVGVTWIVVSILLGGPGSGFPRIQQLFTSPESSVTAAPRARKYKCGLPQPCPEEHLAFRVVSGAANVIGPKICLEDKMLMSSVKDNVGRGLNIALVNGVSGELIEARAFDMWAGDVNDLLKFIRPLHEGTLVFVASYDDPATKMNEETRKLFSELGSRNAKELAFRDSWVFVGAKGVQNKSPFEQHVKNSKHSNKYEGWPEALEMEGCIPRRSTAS
UniProt Q5HYJ3: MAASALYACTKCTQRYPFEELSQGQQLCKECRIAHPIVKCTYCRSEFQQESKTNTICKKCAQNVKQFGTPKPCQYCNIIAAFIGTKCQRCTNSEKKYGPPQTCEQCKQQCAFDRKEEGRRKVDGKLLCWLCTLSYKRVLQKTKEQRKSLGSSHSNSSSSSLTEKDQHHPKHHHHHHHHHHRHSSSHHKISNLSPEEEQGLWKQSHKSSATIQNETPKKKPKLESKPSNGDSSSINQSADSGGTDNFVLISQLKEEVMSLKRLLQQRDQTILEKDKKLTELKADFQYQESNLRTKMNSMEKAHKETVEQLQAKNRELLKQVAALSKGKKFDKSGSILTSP

Key:
Test in all cases: log2 fold change, soluble protein after heating vs DMSO (PISA); higher = thermal stabilisation; K562 lysate, 10 uM; active = over 0.2 and 3.5 SD of the protein, either way, in both replicates (recomputed)
[1] = compound: NCC(=O)Nc1ccc(-n2nc(C(F)(F)F)cc2-c2ccc3c(ccc4ccccc43)c2)cc1
In short: (§1)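 Thermal stability, expressed as log-two fold change relative to solvent controls, is given from duplicates. Crude K562 extract in PBS pH 7.4 with 1 mM MgCl2, at 1 mg/mL protein, was treated with 10 μM compound for 30 min and heated in aliquots for 3 min across 48°C-58°C. After pooling, adjustment to 0.5% NP-40 at 4°C and centrifugation at 21,000xg for 90 min, supernatant protein was measured by TMTpro 16plex LC-MS/MS with channel sums equalised.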

vorinostat = compound: O=C(CCCCCCC(=O)Nc1ccccc1)NO [vorinostat]
In short: as §1

silmitasertib = compound: O=C(O)c1ccc2c(c1)nc(Nc1cccc(Cl)c1)c1ccncc12 [silmitasertib]
In short: as §1

[2] = compound: O=C1NC(=O)C(c2cnc3ccccn23)=C1c1cn2c3c(cc(F)cc13)CN(C(=O)N1CCCCC1)CC2
In short: as §1

entospletinib = compound: c1cn2cc(-c3ccc4cn[nH]c4c3)nc(Nc3ccc(N4CCOCC4)cc3)c2n1 [entospletinib]
In short: as §1

Target | log2 fold change [1] | log2 fold change (vorinostat) | log2 fold change (silmitasertib) | log2 fold change [2] | log2 fold change (entospletinib)
ERP44 (UniProt Q9BS26) | inactive: 0.019 | inactive: 0.07 | inactive: 0.01 | inactive: -0.012 | inactive: -0.009
ERMAP (UniProt Q96PL5) | inactive: -0.007 | inactive: 0.138 | inactive: 0.033 | inactive: 0.065 | inactive: -0.036
EXD2 (UniProt Q9NVH0) | inactive: 0.039 | inactive: -0.351 | inactive: 0.136 | inactive: 0.04 | –
FAM83D (UniProt Q9H4H8) | inactive: 0 | active: -0.243 | inactive: 0.031 | inactive: -0.004 | inactive: 0.021
FAM117B (UniProt Q6P1L5) | inactive: 0.06 | inactive: -0.251 | inactive: 0 | inactive: 0.032 | –
EWSR1 isoform 5 (UniProt Q01844) | inactive: 0.027 | inactive: 0.036 | inactive: -0.034 | inactive: 0.006 | inactive: 0.014
FAM177A1 isoform 2 (UniProt Q8N128) | inactive: -0.006 | inactive: -0.01 | inactive: -0.008 | inactive: 0.04 | –
FAM162A (UniProt Q96A26) | inactive: 0.046 | inactive: 0.085 | inactive: -0.033 | inactive: 0.002 | inactive: 0.005
FAM160B2 (UniProt Q86V87) | inactive: -0.237 | inactive: 0.093 | inactive: -0.024 | inactive: 0.114 | inactive: 0.021
FAM185A (UniProt Q8N0U4) | inactive: 0.343 | inactive: 0.17 | inactive: -0.077 | inactive: 0.068 | –
EXOC4 (UniProt Q96A65) | inactive: 0.009 | active: -0.389 | inactive: 0.041 | inactive: -0.022 | inactive: -0.006
EXOSC9 (UniProt Q06265) | inactive: -0.005 | inactive: 0.194 | inactive: 0.004 | inactive: -0.005 | inactive: 0.021
FABP5 (UniProt Q01469) | inactive: -0.04 | inactive: 0.099 | inactive: -0.02 | inactive: -0.022 | inactive: -0.018
FADS1, A0A0A0MR51 | inactive: 0.054 | inactive: 0.093 | inactive: -0.003 | inactive: -0.046 | inactive: -0.028
FAM114A2 (UniProt Q9NRY5) | inactive: -0.056 | inactive: 0.262 | inactive: -0.015 | inactive: -0.034 | inactive: 0
FAM117A (UniProt Q9C073) | inactive: -0.029 | inactive: -0.154 | inactive: 0.018 | inactive: -0.004 | inactive: 0.035
ERMP1 (UniProt Q7Z2K6) | inactive: -0.033 | inactive: 0.131 | inactive: -0.021 | inactive: 0.015 | inactive: -0.057
ESF1 (UniProt Q9H501) | inactive: -0.004 | inactive: -0.038 | inactive: 0.026 | inactive: -0.045 | inactive: -0.013
EXOSC2 (UniProt Q13868) | inactive: 0.002 | inactive: 0.197 | inactive: -0.007 | inactive: -0.033 | inactive: -0.002
FAAP100 (UniProt Q0VG06) | inactive: -0.271 | inactive: -0.203 | inactive: -0.009 | inactive: 0.002 | inactive: 0.012
EXOC3 (UniProt O60645) | inactive: 0.018 | active: -0.221 | inactive: 0.03 | inactive: 0.002 | inactive: -0.026
FAM210A (UniProt Q96ND0) | inactive: -0.005 | inactive: 0.053 | inactive: 0.066 | inactive: 0.01 | inactive: 0.021
EXOC6 (UniProt Q8TAG9) | inactive: -0.074 | active: -0.301 | inactive: 0.057 | inactive: -0.006 | inactive: 0.021
FAM50A (UniProt Q14320) | inactive: -0.033 | inactive: 0.042 | inactive: -0.005 | inactive: -0.056 | inactive: 0.03
ETV4 (UniProt P43268) | inactive: -0.013 | inactive: -0.077 | inactive: -0.227 | inactive: -0.061 | inactive: -0.009
ERO1A (UniProt Q96HE7) | inactive: 0.001 | inactive: 0.128 | inactive: -0.002 | inactive: -0.027 | inactive: -0.027
FAM32A (UniProt Q9Y421) | inactive: -0.005 | inactive: 0.055 | inactive: -0.015 | inactive: -0.006 | inactive: 0.08

Target | log2 fold change [1] | log2 fold change (vorinostat) | log2 fold change (silmitasertib) | log2 fold change [2] | log2 fold change (entospletinib)
ESYT1 isoform 2 (UniProt Q9BSJ8) | inactive: -0.057 | inactive: -0.053 | inactive: 0.034 | inactive: -0.071 | inactive: 0.011
FAM118A (UniProt Q9NWS6) | inactive: 0.027 | active: -0.834 | inactive: 0.024 | inactive: -0.003 | inactive: -0.014
FADD (UniProt Q13158) | inactive: 0.065 | inactive: 0.09 | inactive: -0.068 | inactive: 0.065 | inactive: -0.051
FAH (UniProt P16930) | inactive: -0.011 | inactive: 0.107 | inactive: -0.033 | inactive: 0.052 | inactive: -0.008
ETFB (UniProt P38117) | inactive: 0.04 | inactive: 0.085 | inactive: -0.013 | inactive: 0.016 | inactive: 0.01
FAM83A (UniProt Q86UY5) | inactive: -0.049 | active: -0.417 | inactive: -0.034 | inactive: -0.052 | inactive: -0.002
EXOC1 (UniProt Q9NV70) | inactive: -0.019 | active: -0.45 | inactive: 0.075 | inactive: -0.019 | inactive: 0.019
EZR (UniProt P15311) | inactive: 0.003 | inactive: 0.127 | inactive: 0.004 | inactive: -0.017 | inactive: 0.023
FAM222B (UniProt Q8WU58) | inactive: 0.145 | inactive: -0.221 | inactive: 0.086 | inactive: 0 | inactive: -0.117
ETF1 (UniProt P62495) | inactive: 0.009 | inactive: 0.044 | inactive: -0.001 | inactive: -0.011 | inactive: 0.003
FAM193A, A0A1B0GVL4 | inactive: 0.065 | inactive: -0.405 | inactive: 0.144 | inactive: -0.038 | inactive: 0.218
EZH2 isoform 2 (UniProt Q15910) | inactive: 0.018 | inactive: -0.171 | inactive: -0.031 | inactive: 0.026 | inactive: 0.022
FAM120B (UniProt Q96EK7) | inactive: -0.002 | active: -0.299 | inactive: 0.041 | inactive: -0.022 | inactive: -0.001
FAHD2A (UniProt Q96GK7) | inactive: 0.019 | inactive: 0.078 | inactive: 0.001 | inactive: 0.011 | inactive: 0.029
EXOC5 (UniProt O00471) | inactive: 0.036 | active: -0.293 | inactive: 0.036 | inactive: 0.002 | inactive: 0.025
FAM241A (UniProt Q8N8J7) | inactive: -0.066 | inactive: 0.07 | inactive: 0.071 | inactive: -0.006 | inactive: -0.08
ERLEC1 (UniProt Q96DZ1) | inactive: 0.004 | inactive: 0.055 | inactive: 0.04 | inactive: -0.002 | inactive: 0
FAM136A (UniProt Q96C01) | inactive: -0.032 | inactive: 0.097 | inactive: -0.013 | inactive: 0.015 | inactive: -0.123
FAM122B isoform 3 (UniProt Q7Z309) | inactive: 0.029 | inactive: 0.091 | inactive: -0.04 | inactive: 0.007 | inactive: -0.075
FAM192A (UniProt Q9GZU8) | inactive: -0.025 | inactive: 0.096 | inactive: 0.011 | inactive: -0.05 | inactive: 0.006
ETHE1 (UniProt O95571) | inactive: -0.01 | inactive: -0.113 | inactive: 0.009 | inactive: 0 | inactive: -0.02
ESPL1 (UniProt Q14674) | inactive: 0.027 | inactive: -0.21 | inactive: 0.098 | inactive: 0.057 | inactive: -0.066
ERLIN1 (UniProt O75477) | inactive: -0.07 | inactive: 0.063 | inactive: 0.064 | inactive: 0.03 | inactive: 0.023
FAM3C (UniProt Q92520) | inactive: 0.013 | inactive: 0.132 | inactive: -0.018 | inactive: 0.038 | inactive: -0.004
FAF1 (UniProt Q9UNN5) | inactive: -0.009 | inactive: 0.011 | inactive: -0.001 | inactive: -0.036 | inactive: -0.002
FAM3A (UniProt P98173) | inactive: -0.037 | inactive: 0.123 | inactive: -0.003 | inactive: -0.107 | inactive: -0.078
FAM76B (UniProt Q5HYJ3) | inactive: -0.018 | inactive: 0.026 | inactive: 0 | inactive: 0.012 | inactive: -0.014

Exported with tabs: entries from further up
Target	log2 fold change [1]	log2 fold change (vorinostat)	log2 fold change (silmitasertib)	log2 fold change [2]	log2 fold change (entospletinib)
FAM3C (UniProt Q92520)	inactive: 0.013	inactive: 0.132	inactive: -0.018	inactive: 0.038	inactive: -0.004
FAF1 (UniProt Q9UNN5)	inactive: -0.009	inactive: 0.011	inactive: -0.001	inactive: -0.036	inactive: -0.002
FAM3A (UniProt P98173)	inactive: -0.037	inactive: 0.123	inactive: -0.003	inactive: -0.107	inactive: -0.078
FAM76B (UniProt Q5HYJ3)	inactive: -0.018	inactive: 0.026	inactive: 0	inactive: 0.012	inactive: -0.014
